From paper PMC6001824, “Expressional and functional interactions of two Apis cerana cerana olfactory receptors” (PeerJ, 2018)

Amino acid sequences for entries named in this document (tags omitted). Residues count along the entry.
UniProt G8HAQ8, 1-400: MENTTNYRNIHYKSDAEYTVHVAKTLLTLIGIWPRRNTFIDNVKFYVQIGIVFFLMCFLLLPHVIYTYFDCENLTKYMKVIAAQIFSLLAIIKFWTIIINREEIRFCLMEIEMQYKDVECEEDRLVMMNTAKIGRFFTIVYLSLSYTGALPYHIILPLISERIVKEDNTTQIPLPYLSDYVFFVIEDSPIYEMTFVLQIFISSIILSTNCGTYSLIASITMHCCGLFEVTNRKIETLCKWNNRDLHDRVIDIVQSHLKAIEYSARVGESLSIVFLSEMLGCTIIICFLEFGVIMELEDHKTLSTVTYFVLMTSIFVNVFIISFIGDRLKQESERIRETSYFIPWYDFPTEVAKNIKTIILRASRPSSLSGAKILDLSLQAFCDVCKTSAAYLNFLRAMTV

Target: AcerOr1 (Apis cerana cerana, UniProt G8HAQ8)
Conditions: Sf9 cells expressing AcerOr1, Ca2+ imaging

EC50: 10^−7 to 10^−8 M and 151 nM
SMILES: CCc1ccc(NC(=O)CSc2nnc(-c3cccnc3)n2CC)cc1 [VUAA1, N-(4-ethylphenyl)-2-((4-ethyl-5-(3-pyridinyl)-4H-1,2,4-triazol-3-yl)thio) acetamide]

A number of entries come with more than one value. This list holds those alone. An entry can have further records. Values that stand side by side differ for a reason that is not stated; some may be repeats, others may stem from another dose, organism or construct than stated.
